# Source: the supplement of paper PMC12819154, “High-throughput peptide-centric local stability assay extends protein–ligand identification to membrane proteins, tissues and bacteria” (Nature Structural & Molecular Biology, 2025)
# Sequences of proteins named here, by UniProt entry; tags and fusion partners are left off. A change or cut given only in a name is not applied to a line headed by its entry.
# UniProt Q80UM3: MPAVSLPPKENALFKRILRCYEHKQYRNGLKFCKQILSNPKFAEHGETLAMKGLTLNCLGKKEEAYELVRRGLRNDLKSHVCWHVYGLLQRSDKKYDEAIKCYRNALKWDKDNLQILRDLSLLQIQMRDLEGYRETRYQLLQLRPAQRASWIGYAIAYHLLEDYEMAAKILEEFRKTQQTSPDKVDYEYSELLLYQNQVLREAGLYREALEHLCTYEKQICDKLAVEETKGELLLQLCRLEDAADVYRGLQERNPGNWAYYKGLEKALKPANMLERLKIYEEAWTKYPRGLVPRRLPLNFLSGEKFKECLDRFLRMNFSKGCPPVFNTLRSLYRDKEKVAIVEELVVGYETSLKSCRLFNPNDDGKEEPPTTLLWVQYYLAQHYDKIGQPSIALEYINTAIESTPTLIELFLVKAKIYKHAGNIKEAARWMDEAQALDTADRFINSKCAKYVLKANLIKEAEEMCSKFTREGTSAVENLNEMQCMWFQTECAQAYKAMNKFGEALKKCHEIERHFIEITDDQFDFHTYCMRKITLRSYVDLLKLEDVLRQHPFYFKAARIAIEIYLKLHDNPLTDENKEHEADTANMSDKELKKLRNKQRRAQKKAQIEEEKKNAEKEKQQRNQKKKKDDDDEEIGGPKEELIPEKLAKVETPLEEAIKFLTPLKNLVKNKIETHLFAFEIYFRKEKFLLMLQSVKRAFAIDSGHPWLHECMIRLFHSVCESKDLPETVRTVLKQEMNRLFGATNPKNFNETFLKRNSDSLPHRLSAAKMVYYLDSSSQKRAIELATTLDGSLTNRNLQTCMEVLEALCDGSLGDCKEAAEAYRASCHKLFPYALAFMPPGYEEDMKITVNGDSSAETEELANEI
# UniProt Q7TSJ2: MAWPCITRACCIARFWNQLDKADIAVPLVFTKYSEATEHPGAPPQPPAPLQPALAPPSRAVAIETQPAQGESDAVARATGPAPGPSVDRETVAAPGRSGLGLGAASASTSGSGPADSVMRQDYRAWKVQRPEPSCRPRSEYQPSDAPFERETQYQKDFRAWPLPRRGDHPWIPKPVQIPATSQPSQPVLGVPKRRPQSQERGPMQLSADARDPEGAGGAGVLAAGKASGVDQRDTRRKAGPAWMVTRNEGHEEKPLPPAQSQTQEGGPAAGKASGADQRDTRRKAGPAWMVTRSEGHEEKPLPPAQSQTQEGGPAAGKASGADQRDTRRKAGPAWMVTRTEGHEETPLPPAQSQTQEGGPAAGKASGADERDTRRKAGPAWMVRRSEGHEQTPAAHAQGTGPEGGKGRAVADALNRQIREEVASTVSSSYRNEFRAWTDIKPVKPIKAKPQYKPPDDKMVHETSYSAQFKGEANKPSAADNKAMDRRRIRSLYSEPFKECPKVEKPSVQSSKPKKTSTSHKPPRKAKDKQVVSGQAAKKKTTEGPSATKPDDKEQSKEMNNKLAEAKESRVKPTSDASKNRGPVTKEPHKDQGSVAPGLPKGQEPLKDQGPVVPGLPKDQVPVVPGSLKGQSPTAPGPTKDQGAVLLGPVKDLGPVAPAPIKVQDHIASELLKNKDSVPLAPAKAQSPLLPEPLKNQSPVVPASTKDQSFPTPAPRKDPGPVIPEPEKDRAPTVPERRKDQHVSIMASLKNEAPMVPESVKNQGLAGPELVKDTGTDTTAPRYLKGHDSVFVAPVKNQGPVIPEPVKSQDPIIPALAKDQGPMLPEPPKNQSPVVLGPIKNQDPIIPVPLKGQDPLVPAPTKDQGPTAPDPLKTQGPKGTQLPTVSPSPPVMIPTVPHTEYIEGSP
# UniProt Q6ZQF0, whole entry: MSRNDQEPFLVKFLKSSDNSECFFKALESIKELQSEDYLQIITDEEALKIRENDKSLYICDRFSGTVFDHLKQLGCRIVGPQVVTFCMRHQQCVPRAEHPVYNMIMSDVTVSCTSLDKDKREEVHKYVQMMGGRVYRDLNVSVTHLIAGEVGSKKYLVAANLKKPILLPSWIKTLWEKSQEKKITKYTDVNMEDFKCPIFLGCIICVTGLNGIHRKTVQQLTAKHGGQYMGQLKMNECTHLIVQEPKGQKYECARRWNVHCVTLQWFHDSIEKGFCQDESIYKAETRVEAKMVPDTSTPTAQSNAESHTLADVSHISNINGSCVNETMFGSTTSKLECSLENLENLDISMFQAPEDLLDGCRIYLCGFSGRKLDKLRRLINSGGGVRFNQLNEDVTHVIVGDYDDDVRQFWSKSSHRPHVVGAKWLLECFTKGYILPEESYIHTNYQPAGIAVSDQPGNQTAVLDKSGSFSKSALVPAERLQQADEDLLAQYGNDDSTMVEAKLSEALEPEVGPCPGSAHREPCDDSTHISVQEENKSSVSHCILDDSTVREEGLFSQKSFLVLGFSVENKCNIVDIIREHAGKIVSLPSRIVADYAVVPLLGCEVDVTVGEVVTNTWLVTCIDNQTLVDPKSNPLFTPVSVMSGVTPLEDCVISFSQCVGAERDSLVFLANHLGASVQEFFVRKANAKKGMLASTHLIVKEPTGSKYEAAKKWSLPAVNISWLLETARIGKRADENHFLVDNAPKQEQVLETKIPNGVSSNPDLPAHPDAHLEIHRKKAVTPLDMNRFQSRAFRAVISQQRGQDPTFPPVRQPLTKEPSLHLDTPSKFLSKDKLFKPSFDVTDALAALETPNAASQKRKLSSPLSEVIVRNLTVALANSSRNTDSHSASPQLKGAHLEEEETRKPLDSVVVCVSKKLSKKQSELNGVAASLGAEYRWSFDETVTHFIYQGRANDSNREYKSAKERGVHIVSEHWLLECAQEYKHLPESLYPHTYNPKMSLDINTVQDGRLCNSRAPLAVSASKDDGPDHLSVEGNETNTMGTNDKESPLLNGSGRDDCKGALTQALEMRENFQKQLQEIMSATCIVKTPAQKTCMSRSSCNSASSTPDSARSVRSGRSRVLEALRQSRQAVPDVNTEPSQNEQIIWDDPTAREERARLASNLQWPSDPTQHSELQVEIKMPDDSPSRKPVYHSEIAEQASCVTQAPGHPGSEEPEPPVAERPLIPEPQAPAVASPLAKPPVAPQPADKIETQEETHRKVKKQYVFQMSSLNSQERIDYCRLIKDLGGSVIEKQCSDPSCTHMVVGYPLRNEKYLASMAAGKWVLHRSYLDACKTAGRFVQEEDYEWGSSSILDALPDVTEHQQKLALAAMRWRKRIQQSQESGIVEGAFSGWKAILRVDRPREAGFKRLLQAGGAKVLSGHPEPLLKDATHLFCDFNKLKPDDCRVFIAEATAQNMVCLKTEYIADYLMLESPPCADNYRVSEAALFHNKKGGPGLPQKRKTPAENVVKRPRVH
# UniProt Q80T19: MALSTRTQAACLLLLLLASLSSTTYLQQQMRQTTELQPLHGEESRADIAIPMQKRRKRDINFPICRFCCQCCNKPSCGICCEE
# UniProt Q6ZQB6: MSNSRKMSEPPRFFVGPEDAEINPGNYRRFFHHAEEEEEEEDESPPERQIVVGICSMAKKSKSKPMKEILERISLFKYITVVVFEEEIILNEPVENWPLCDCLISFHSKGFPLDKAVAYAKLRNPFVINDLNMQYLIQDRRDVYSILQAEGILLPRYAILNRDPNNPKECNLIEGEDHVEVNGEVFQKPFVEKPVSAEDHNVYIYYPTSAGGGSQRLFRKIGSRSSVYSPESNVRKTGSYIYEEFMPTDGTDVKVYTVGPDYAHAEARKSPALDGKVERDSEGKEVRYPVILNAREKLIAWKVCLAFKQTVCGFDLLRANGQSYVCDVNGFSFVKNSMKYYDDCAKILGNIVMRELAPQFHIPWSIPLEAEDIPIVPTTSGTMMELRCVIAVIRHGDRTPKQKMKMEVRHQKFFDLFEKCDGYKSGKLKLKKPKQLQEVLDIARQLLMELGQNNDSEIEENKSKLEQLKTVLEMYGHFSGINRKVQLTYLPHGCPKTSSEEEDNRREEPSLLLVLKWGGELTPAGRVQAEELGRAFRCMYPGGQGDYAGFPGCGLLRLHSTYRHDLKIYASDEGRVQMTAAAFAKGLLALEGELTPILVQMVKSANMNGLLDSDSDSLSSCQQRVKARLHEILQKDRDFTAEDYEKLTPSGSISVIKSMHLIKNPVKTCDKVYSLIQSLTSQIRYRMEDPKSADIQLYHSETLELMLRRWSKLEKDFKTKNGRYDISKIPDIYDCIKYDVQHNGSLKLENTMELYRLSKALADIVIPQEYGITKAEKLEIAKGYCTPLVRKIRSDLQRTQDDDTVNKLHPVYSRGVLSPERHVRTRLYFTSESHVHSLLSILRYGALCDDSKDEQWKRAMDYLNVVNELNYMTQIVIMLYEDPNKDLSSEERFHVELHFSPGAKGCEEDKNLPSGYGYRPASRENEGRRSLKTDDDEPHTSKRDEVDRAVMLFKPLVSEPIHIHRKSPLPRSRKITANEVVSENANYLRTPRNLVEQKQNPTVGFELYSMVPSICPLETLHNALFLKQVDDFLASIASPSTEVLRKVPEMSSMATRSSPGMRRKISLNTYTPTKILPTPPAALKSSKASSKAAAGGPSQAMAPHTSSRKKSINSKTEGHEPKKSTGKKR
# UniProt Q7SIG6: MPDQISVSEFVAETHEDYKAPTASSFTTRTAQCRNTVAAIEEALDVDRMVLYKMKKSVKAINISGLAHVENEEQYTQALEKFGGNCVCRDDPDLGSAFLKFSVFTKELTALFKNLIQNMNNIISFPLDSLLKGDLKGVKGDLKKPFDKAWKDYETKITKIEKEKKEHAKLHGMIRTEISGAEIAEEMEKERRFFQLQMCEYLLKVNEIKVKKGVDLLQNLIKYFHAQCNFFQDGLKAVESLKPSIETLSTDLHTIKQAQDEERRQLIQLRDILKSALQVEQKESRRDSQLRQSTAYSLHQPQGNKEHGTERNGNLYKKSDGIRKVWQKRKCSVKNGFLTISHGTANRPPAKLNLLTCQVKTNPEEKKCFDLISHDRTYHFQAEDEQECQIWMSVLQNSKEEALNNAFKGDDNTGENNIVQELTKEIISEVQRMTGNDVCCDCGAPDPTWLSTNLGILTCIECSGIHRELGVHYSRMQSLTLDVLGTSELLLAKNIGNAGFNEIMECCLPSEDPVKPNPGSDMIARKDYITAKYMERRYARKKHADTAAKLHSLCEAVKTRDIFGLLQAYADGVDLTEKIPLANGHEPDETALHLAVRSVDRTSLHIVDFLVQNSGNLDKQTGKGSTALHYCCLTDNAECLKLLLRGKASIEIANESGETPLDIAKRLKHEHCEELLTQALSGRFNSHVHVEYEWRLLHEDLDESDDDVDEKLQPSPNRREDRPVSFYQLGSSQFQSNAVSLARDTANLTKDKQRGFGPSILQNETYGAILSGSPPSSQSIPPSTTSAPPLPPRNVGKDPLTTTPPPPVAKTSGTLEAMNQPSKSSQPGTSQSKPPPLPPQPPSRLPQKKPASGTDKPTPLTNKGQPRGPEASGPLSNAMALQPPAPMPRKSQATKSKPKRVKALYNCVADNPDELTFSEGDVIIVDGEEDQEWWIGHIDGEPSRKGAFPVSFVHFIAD
# UniProt Q6ZPR1: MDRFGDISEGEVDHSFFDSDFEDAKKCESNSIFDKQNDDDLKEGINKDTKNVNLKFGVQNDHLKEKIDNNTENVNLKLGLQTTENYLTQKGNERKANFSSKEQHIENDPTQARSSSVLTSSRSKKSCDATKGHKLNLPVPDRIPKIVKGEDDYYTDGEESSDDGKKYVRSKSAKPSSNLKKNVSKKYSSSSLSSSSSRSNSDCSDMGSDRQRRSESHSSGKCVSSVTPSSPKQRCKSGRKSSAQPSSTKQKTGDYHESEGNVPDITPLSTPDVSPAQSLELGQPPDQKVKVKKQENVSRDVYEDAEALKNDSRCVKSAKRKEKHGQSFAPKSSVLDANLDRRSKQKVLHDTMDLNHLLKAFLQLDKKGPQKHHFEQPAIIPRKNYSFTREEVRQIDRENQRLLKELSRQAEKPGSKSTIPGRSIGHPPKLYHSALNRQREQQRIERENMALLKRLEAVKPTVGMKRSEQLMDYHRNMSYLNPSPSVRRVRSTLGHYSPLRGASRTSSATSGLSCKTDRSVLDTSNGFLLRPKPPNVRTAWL
# UniProt Q7TNP2, whole entry: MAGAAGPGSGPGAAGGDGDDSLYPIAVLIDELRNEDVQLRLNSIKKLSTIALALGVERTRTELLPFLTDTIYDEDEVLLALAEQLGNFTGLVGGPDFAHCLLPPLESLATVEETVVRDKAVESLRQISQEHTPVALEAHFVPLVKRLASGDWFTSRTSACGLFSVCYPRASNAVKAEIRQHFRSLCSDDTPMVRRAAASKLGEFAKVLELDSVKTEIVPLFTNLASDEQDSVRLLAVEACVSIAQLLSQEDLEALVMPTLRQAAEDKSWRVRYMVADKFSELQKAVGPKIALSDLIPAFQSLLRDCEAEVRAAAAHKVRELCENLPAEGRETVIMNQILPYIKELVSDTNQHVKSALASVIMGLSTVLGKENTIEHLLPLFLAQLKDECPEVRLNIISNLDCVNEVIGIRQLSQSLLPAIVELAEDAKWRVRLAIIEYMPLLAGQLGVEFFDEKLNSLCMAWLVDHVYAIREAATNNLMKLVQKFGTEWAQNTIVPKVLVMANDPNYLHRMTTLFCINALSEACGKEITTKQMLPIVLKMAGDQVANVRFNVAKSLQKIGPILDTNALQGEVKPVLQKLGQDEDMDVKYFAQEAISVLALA
# This is one part of the list. Most values lie at the level of the controls, where differences are scatter.
# Compound: CN[C@@H]1C[C@H]2O[C@@](C)([C@@H]1OC)n1c3ccccc3c3c4c(c5c6ccccc6n2c5c31)C(=O)NC4 [staurosporine]
# Test: log2 fold change of tryptic peptide abundance, ligand vs vehicle (limited proteolysis) (log2 ratio); higher = more trypsin-susceptible (destabilized)
# Details: ligand concentration: 20 uM; sample: mouse liver crude lysate; replicate design: treated separately
row,Target,log2 fold change
1,"UniProt Q80UM3 (peptide sequence: ILEEFRK, peptide start residue: 170)",0.259
2,"UniProt Q6ZPL9 (peptide sequence: CPLQEMSLQR, peptide start residue: 389)",0.205
3,"UniProt Q7TSJ2 (peptide sequence: AGPAWMVTR, peptide start residue: 239)",0.308
4,"UniProt Q71LX4 (peptide sequence: HTSALCNACR, peptide start residue: 1504)",-0.418
5,"UniProt Q6ZQF0 (peptide sequence: YLVAANLK, peptide start residue: 156)",-0.00553
6,"UniProt Q80T19 (peptide sequence: QTTELQPLHGEESR, peptide start residue: 32)",-0.112
7,"UniProt Q7TQK4 (peptide sequence: RYVPVKGDHVIGIVIAK, peptide start residue: 107)",0.531
8,"UniProt Q80UN9 (peptide sequence: SYHMCDLCDR, peptide start residue: 393)",0.509
9,"UniProt Q6ZQB6 (peptide sequence: EKLIAWK, peptide start residue: 296)",0.32
10,"UniProt Q7TMV3 (peptide sequence: NQYCYGSR, peptide start residue: 703)",-0.401
11,"UniProt Q7TN02 (peptide sequence: LLQAIDSQSNIR, peptide start residue: 15)",0.535
12,"UniProt Q6ZPT1 (peptide sequence: ESPLSAPSDHS, peptide start residue: 607)",0.0453
13,"UniProt Q80TZ3 (peptide sequence: AVLVVHPDK, peptide start residue: 1264)",-0.42
14,"UniProt Q80TN5 (peptide sequence: LKADKEFR, peptide start residue: 295)",0.0304
15,"UniProt Q6XVG2 (peptide sequence: HFSLMTLR, peptide start residue: 125)",0.21
16,"UniProt Q80US4 (peptide sequence: GGEYLKEHCASNTYVPIRLPK, peptide start residue: 562)",0.234
17,"UniProt Q80TR1 (peptide sequence: MWNDTVR, peptide start residue: 1167)",-0.177
18,"UniProt Q7TQE6 (peptide sequence: KLEEATAAR, peptide start residue: 482)",-0.325
19,"UniProt Q7TPD1 (peptide sequence: SSMEGASTSTTENFGHR, peptide start residue: 120)",-0.115
20,"UniProt Q7TNH6 (peptide sequence: EAETSLLGGK, peptide start residue: 1287)",-0.586

# 3 entries from above, bar-delimited:
row | Target | log2 fold change
4 | UniProt Q71LX4 (peptide sequence: HTSALCNACR, peptide start residue: 1504) | -0.418
8 | UniProt Q80UN9 (peptide sequence: SYHMCDLCDR, peptide start residue: 393) | 0.509
19 | UniProt Q7TPD1 (peptide sequence: SSMEGASTSTTENFGHR, peptide start residue: 120) | -0.115

# More entries:

row,Target,log2 fold change
1,"UniProt Q6ZQI3 (peptide sequence: LYIEFVK, peptide start residue: 190)",0.277
2,"UniProt Q7TN99 (peptide sequence: RFGPLVVDWPHKAESK, peptide start residue: 286)",-0.21
3,"UniProt Q7SIG6 (peptide sequence: AVESLKPSIETLSTDLHTIK, peptide start residue: 237)",-0.59
4,"UniProt Q80UG5 (peptide sequence: LADPTGPALKR, peptide start residue: 19)",0.255
5,"UniProt Q6ZPR1 (peptide sequence: VLHDTMDLNHLLK, peptide start residue: 347)",0.419
6,"UniProt Q80UF7 (peptide sequence: AWQAEMNK, peptide start residue: 581)",0.303
7,"UniProt Q80UF4 (peptide sequence: VQVVVLENER, peptide start residue: 150)",0.167
8,"UniProt Q6ZPS6 (peptide sequence: AHDWDREK, peptide start residue: 262)",0.513
9,"UniProt Q7TNP2 (peptide sequence: YMVADKFSELQK, peptide start residue: 273)",-0.228
10,"UniProt Q80U30 (peptide sequence: RGSSDPTVQR, peptide start residue: 846)",0.751
11,"UniProt Q7TND5 (peptide sequence: MFASLFPHNPQFIGR, peptide start residue: 262)",-0.232
12,"UniProt Q78JN3 (peptide sequence: ESKDILVTSEDGITK, peptide start residue: 136)",-0.187
13,"UniProt Q7TMK9 (peptide sequence: VTEGLTDVILYHQPDDK, peptide start residue: 266)",0.108
14,"UniProt Q7TT28 (peptide sequence: AAGGAGALEYVPK, peptide start residue: 182)",-0.593
15,"UniProt Q80UJ7 (peptide sequence: LQMLNCCIER, peptide start residue: 516)",0.666
16,"UniProt Q78WZ7 (peptide sequence: LSTTSLQLK, peptide start residue: 198)",0.261
17,"UniProt Q7TT37 (peptide sequence: KLDLICDAMR, peptide start residue: 816)",0.594
18,"UniProt Q80UU9 (peptide sequence: EKYDYVGR, peptide start residue: 186)",-0.0802
19,"UniProt Q7TNG8 (peptide sequence: TEAITQDNGGSHFSWAK, peptide start residue: 319)",-0.133
20,"UniProt Q7TS75 (peptide sequence: TSGADQSVPGAK, peptide start residue: 184)",-0.272
